Source: paper PMC7673040
Numbering of substitutions follows the chain as printed. Results are given in words; binding and its absence hold for the method and conditions named. Binding seen in cells or lysates may run through a third protein. Binding calls can cover weak binding; strength is not graded here.

Assays:
[1] = target: T1, SRα GTP hydrolysis mutant (R458A) (human) (UniProt P08240); test: co-purification; SRα (wildtype or R458A) and SRβΔTM co-expressed in E. coli BL21(DE3); Ni-Sepharose, MonoS, Superdex 200
T1 sequence: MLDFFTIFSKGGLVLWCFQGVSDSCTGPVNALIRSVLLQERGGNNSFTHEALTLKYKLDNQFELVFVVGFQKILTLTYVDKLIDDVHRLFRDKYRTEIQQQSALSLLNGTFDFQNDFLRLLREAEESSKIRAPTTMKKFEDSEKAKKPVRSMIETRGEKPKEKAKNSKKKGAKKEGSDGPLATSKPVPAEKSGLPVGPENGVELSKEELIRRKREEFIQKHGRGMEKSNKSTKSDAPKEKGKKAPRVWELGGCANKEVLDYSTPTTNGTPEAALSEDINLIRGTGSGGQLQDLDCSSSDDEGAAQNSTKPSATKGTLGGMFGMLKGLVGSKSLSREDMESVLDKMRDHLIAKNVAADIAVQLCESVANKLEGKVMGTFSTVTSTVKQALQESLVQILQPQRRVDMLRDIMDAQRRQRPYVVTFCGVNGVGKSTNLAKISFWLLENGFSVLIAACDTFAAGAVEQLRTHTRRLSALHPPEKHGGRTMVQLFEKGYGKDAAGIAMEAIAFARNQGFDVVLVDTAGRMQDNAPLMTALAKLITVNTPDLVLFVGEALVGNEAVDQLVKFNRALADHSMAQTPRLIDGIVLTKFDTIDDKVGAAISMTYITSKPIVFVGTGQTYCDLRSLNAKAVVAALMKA

SRα wildtype (human) = target: T2, SRα wildtype (human) (UniProt P08240); test: as above
T2 sequence: T1 sequence with A458R

- binding [1]: binds
- binding (SRα wildtype (human)): binds
Substance: SRβΔTM (human) (domain or fragment)
